The values that follow come from publication PMC10117657.

Protein sequences, listed by entry. Tags and fused reporters are not part of them. Residues count along the entry.
UniProt Q8IZJ1, residues 27-945: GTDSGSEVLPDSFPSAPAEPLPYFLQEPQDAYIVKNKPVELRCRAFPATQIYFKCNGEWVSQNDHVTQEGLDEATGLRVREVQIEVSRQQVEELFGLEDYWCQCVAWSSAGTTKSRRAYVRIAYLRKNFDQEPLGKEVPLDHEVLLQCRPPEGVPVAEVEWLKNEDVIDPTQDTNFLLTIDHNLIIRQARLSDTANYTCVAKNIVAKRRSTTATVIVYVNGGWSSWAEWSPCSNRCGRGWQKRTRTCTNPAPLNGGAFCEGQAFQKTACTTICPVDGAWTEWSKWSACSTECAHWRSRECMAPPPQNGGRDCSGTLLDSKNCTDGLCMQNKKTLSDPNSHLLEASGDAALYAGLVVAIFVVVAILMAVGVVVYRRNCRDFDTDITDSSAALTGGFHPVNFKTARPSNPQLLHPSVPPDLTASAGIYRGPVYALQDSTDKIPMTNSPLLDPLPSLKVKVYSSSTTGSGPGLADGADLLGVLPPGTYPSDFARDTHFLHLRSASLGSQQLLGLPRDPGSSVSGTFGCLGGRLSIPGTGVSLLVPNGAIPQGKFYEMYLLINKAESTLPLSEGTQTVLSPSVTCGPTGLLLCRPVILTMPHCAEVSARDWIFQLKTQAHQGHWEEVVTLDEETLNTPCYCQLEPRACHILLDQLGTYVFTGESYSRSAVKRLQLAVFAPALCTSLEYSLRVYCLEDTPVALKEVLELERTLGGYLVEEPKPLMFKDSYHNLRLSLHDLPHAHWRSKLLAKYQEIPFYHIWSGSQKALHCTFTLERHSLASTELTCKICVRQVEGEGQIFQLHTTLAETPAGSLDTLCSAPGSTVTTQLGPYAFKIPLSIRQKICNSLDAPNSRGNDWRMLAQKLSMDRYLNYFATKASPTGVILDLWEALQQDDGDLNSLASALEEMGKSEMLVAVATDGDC

Test [1] deals with T1, Flag-tagged human FLRT2 extracellular domain (hFLRT2-ECD, aa1-aa541) (human) (UniProt O43155).
T1 sequence: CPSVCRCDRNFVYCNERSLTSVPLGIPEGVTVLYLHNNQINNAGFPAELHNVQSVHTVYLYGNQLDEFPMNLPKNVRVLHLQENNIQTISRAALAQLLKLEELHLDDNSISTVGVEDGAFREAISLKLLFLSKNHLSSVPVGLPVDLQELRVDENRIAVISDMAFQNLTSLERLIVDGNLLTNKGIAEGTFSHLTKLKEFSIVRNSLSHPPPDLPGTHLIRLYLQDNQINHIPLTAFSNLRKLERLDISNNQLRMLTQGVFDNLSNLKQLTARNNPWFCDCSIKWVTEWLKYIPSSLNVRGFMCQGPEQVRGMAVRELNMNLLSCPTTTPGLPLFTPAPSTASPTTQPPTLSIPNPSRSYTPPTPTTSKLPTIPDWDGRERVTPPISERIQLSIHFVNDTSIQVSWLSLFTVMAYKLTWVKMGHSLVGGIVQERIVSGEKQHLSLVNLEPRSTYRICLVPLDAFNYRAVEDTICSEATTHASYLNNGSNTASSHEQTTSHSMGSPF
Nature of the test: co-IP; Flag-tagged hFLRT2-ECD or hFLRT2-ICD with Myc-tagged hUNC5B; cell line not stated for this panel.

Test [2] concerns the target T2, Flag-tagged human FLRT2 intracellular domain (hFLRT2-ICD, aa563-aa660) (human) (UniProt O43155).
T2 sequence: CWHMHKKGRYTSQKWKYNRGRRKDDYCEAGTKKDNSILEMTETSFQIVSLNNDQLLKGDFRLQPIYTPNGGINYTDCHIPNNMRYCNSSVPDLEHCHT
The description is as above.

The target of test [3] is T3, Flag-tagged full-length human FLRT2 (fibronectin leucine-rich transmembrane protein 2) (human) (UniProt O43155).
T3 sequence: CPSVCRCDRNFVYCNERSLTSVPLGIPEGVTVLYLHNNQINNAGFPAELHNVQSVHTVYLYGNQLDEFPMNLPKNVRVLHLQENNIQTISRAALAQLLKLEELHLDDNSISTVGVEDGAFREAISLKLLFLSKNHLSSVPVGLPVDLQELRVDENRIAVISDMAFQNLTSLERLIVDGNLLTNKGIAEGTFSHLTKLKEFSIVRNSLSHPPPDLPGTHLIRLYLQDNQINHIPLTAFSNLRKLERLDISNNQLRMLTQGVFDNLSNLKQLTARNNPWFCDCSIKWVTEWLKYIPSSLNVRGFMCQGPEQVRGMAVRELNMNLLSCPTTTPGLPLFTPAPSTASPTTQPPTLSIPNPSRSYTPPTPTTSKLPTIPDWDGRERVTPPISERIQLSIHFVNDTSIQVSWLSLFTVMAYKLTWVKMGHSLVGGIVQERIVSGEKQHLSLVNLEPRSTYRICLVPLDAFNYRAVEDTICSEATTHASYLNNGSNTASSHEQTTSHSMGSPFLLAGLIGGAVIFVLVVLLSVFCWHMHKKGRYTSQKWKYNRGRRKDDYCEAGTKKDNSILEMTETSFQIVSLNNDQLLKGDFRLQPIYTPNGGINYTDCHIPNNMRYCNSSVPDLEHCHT
Nature of the test: co-IP; Myc-hUNC5B and/or Flag-hFLRT2 transfected into HEK293T cells; precipitated with anti-Flag, blotted for Myc and Flag; lysis in 25 mM HEPES pH 7.4, 150 mM NaCl, 0.5% Triton X-100; washes with 450 mM NaCl.

Test [4] deals with endogenous UNC5B of THP-1 cells (human (endogenous in THP-1)) (UniProt Q8IZJ1). Nature of the test: co-IP; endogenous proteins; UNC5B immunoprecipitated from PMA-incubated THP-1 cells, blotted for FLRT2 and UNC5B.

These are yes or no findings as the source states them, for the method shown. Binding seen in cells or lysates may run through a third protein. Some entries that bind do so weakly or less than the wild type. For some of these results: Tags and fused reporters may be left off the sequences shown.

For “Myc-tagged full-length human UNC5B (Unc-5 netrin receptor B) (from UniProt Q8IZJ1 27-945)”, the binding entry in test [1] is on record as “binds”; in test [2], “no binding”; in test [3] it was “binds”.

B1: endogenous FLRT2 of THP-1 cells (protein, UniProt O43155 36-660)
chain: CPSVCRCDRNFVYCNERSLTSVPLGIPEGVTVLYLHNNQINNAGFPAELHNVQSVHTVYLYGNQLDEFPMNLPKNVRVLHLQENNIQTISRAALAQLLKLEELHLDDNSISTVGVEDGAFREAISLKLLFLSKNHLSSVPVGLPVDLQELRVDENRIAVISDMAFQNLTSLERLIVDGNLLTNKGIAEGTFSHLTKLKEFSIVRNSLSHPPPDLPGTHLIRLYLQDNQINHIPLTAFSNLRKLERLDISNNQLRMLTQGVFDNLSNLKQLTARNNPWFCDCSIKWVTEWLKYIPSSLNVRGFMCQGPEQVRGMAVRELNMNLLSCPTTTPGLPLFTPAPSTASPTTQPPTLSIPNPSRSYTPPTPTTSKLPTIPDWDGRERVTPPISERIQLSIHFVNDTSIQVSWLSLFTVMAYKLTWVKMGHSLVGGIVQERIVSGEKQHLSLVNLEPRSTYRICLVPLDAFNYRAVEDTICSEATTHASYLNNGSNTASSHEQTTSHSMGSPFLLAGLIGGAVIFVLVVLLSVFCWHMHKKGRYTSQKWKYNRGRRKDDYCEAGTKKDNSILEMTETSFQIVSLNNDQLLKGDFRLQPIYTPNGGINYTDCHIPNNMRYCNSSVPDLEHCHT
Take B1: in test [4], the binding result is listed as “binds”.
